{
  "source": "ChEMBL document CHEMBL4483862",
  "about": "“Open-source discovery of chemical leads for next-generation chemoprotective antimalarials” (2018)",
  "test_system": "Plasmodium berghei",
  "assay": "Luciferase/luciferin-expressing antifolate-resistant parasites were used to infect a culture of HepG2 cells that were pre-incubated with compounds. Infected hepatocytes emit light due to the luciferase reaction. Assay results are presented as the percent inhibition of light emission compared to control. […]",
  "type": "functional",
  "conditions": "sporozoite, read-out: LUCIFERASE INFECTION ASSAY - IC90",
  "data": [
    {"compound": "CCCCc1oc2ccccc2c1C(=O)c1cc(I)c(OCCN(CC)CC)c(I)c1", "note": "[AMIODARONE]", "values": [
      {"measurement": "IC90", "value": "> 4.84", "unit": "µM"}
    ]}
  ]
}
